The values below come from PubChem BioAssay AID493014 (National Center for Advancing Translational Sciences (NCATS), 2011).

SMILES strings stand for the structures. “And” between values parts separate entries of the source, which are not always exact repeats. Equal entries are not always repeated. This is one part of the list. Further columns of the screen follow, without active or inactive calls. The list favours compounds with an active or inconclusive main result. Words in brackets tell the shape of the fitted curve; partial curves, single points and poor fits give uncertain potencies.

This assay is described as follows: qHTS Assay to Find Inhibitors of Chronic Active B-Cell Receptor Signaling. The settings on record: ABC-DLBCL IkBa-CBG/CBR reporter, luminescence ratio (green luciferase fused to IkBa over red control in TMD8 lymphoma cells), 4 h. The method in brief:
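TMD8 ABC-DLBCL cells carrying doxycycline-inducible green luciferase fused to IkappaBalpha plus unfused red luciferase were exposed to compounds (up to 46 uM) for 4 hrs at 37C. Activity came from the overlap-corrected green/red luminescence ratio.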
In general terms: qHTS replaces the single test concentration by a dilution series.

Setting [1] is: measured here: CBR red luminescence, cell number.
[2] abbreviates: measured here: IkBa-CBG green luminescence.

In the case of `O=C(NC(=S)Nc1ccc(S(=O)(=O)NC2CCCCC2)cc1)c1cccs1`, the AC50 (usually the concentration at which the activity in the assay is half-maximal) under setting [1] is 1.84 µM [falling, full curve].
Same read-out and setting: with `CCCCN1C(=O)CC(C(=O)O)C1c1ccc(OC)cc1` (stereo not given) the figure was 29.1 µM [rising, single point].
Take `Cc1ccccc1-c1nc2c3ccccc3nc(=S)n2[nH]1`: the AC50 by setting is: under setting [1], 6.31 µM [rising, partial curve, poor fit]; under setting [2], 0.708 µM [falling, full curve].
For `CCCCC(=O)Nc1ccc(C(=O)Nc2ccc(S(=O)(=O)N3CCCC3)cc2)cc1`, under setting [1], the AC50 is 29.1 µM [falling, single point].
Consider `O=C(N/N=C/CCc1ccccc1)c1ccc(CN2c3cccc4cccc(c34)S2(=O)=O)cc1`, for which the AC50 under setting [1] is 14.6 µM [rising, partial curve, poor fit].
On to `O=C(Nc1cccc(Cl)c1)c1cc([N+](=O)[O-])ccc1N1CCN(CCO)CC1`, for which, under setting [1], the AC50 is 12.6 µM [falling, partial curve, poor fit].
As for `O=C(Nc1ccc([N+](=O)[O-])cc1)c1cc2ccccc2nc1Cl`, under setting [1], the AC50 was 0.562 µM [rising, full curve, poor fit].
Same read-out and setting: next, `O=C(COc1ccc(Br)cc1)Nc1ccc(CN2CCOCC2)cc1`: 1 µM [falling, full curve, poor fit]; `COC(=O)C1=C(C)N(Cc2ccccc2)C(=NCc2cccc(C(F)(F)F)c2)N[C@H]1c1cccc(F)c1`: 35.5 µM [falling, single point] and 14.1 µM [falling, partial curve, poor fit].
For `Cn1cc(CN2CC3C[C@@H]4CC2C[C@H](C3)C4)c(-c2ccc3c(c2)OCCO3)n1`, the AC50 under setting [1] was 1 µM [rising, partial curve, poor fit].
On to `COc1ccccc1CNC(=O)c1ccc(NS(=O)(=O)c2cccs2)cc1`, for which the AC50 under setting [1] is 22.4 µM [falling, partial curve, poor fit].
For `Cc1ccccc1C(=O)N=c1c(C#N)cc2c(=O)n3cccc(C)c3nc2n1Cc1ccco1`, the AC50 under setting [1] is 4.61 µM [falling, single point].
Take `CCN(CC)c1ccc2c(cc1=O)[C@@H](NC)CCc1cc(OC)c(OC)c(OC)c1-2`: the AC50 is, setting by setting: under setting [1], 1.78 µM [rising, full curve, poor fit]; under setting [2], 5.01 µM [falling, partial curve].
Regarding `COC(=O)[C@@]1(Cc2ccccc2)[C@H]2C(=O)N(C)C(=O)[C@H]2[C@H]2CN=C(SCc3ccc(C)cc3)N21`, the concentration at half-maximal activity (AC50) under setting [1] was 1.16 µM [rising, full curve, poor fit].
For the molecule `COc1ccccc1Oc1ccc(S(=O)(=O)N2CCOCC2)cc1S(=O)(=O)N1CCOCC1`, the AC50 under setting [1] is 3.66 µM [falling, partial curve, poor fit].
For the molecule `Cc1nc(-c2ccc(NC(=O)c3ccccc3C)cc2)cs1`, the AC50 under setting [1] was 11.2 µM [falling, partial curve].
As for `CCOC(=O)c1sc2nc(C)[nH]c(=O)c2c1C`, under setting [1], the AC50 was 35.5 µM [falling, single point].
Turning to `COC(=O)c1c(C)[nH]c(C(=O)OCc2csc(CC(=O)Nc3ccccc3C)n2)c1C`, the AC50 under setting [1] is 13 µM [falling, partial curve, poor fit].
For the molecule `O=C1C(NS(=O)(=O)c2cccs2)=C(N2CCN(c3ccccc3)CC2)C(=O)c2ccccc21`, the AC50 under setting [1] was 1.3 µM [rising, full curve, poor fit].
`c1cnc(SCCOc2ccc3c(c2)CCC3)nc1`: the AC50 under setting [1] was 0.326 µM [rising, partial curve, poor fit].
As to `CC(=O)Nc1ccc(S(=O)(=O)NCCC(=O)N2CCC(Cc3ccccc3)CC2)cc1`, the AC50 under setting [1] was 16.4 µM [falling, partial curve, poor fit].
Regarding `COc1ccc(C2(O)CCN(C(=O)c3c(F)cccc3F)CC2)cc1`, under setting [1], the AC50 was 12.6 µM [rising, single point].
Consider `C=CCN1C(=O)C(Cc2ccc(OC)cc2)S/C1=N/N=C/c1ccco1` (stereo not given), for which the AC50 under setting [1] was 29.1 µM [rising, single point].
Take `Cc1ccc(C)c(NC(=O)c2ccc3c(c2)N(Cc2ccc(F)cc2)C(=O)CS3=O)c1` (stereo not given): the AC50 was 32.6 µM [falling, single point] under setting [1] and 23.1 µM [rising, partial curve, poor fit] under setting [2].
As to `CC(/C=C1\SC(=S)N(CCC(=O)Nc2ccc(O)cc2)C1=O)=C\c1ccccc1`, the AC50 under setting [1] was 2.24 µM [rising, full curve, poor fit].
Turning to `CCOC(=O)COc1ccccc1C(=O)c1cnn(-c2ccccc2)c1`, under setting [1], the AC50 is 7.94 µM [falling, partial curve].
Still for that read-out and setting: with `C#CCOCCOCCOCCNc1nc(N2CCOCC2)nc(N2CCN(C(=O)[C@H]([C@@H](C)CC)n3cc([C@@H](N)CC(C)C)nn3)CC2)n1` the figure was 5.01 µM [falling, partial curve].
`C=C(C)Cn1c(N2CC(C)CC(C)C2)nc2c1c(=O)[nH]c(=O)n2C` (stereo not given): the AC50 under setting [1] is 3.16 µM [rising, single point].
`COc1cccc(C2=CC(c3ccc(OC)c(OC)c3OC)n3ncnc3N2)c1` (stereo not given): the AC50 under setting [1] is 2.82 µM [rising, single point].
Same read-out and setting: next, `O=C(CCCOc1ccc(Cl)cc1)N1CCOCC1`: 8.2 µM [rising, partial curve, poor fit]; `NS(=O)(=O)c1ccc(-c2ccc(/C=C3\C(=O)Nc4cc(Cl)ccc43)o2)cc1`: 11.2 µM [rising, single point]; `CN(C(=O)c1ccc(F)cc1)c1ccc(OCC(=O)Nc2ccccc2C(=O)O)cc1`: 7.31 µM [falling, partial curve, poor fit].
Turning to `Cc1[nH]c2ccccc2c1C(c1ccccn1)N1CCC(C(N)=O)CC1` (stereo not given), the AC50 under setting [1] was 10 µM [falling, partial curve].
Consider `Cc1nn(-c2ccccc2)c(Cl)c1CN(C(=O)CCl)c1ccc(Cl)cc1`, for which the AC50 runs as follows: under setting [1], 16.4 µM [falling, partial curve]; under setting [2], 14.6 µM [rising, partial curve, poor fit].
As for `COc1ccc(OCCC(=O)OCC(=O)Nc2cccc(S(=O)(=O)N3CCCCC3)c2)cc1`, under setting [1], the AC50 was 9.2 µM [falling, partial curve].
On to `CC(C)(C)c1ccc(C(=O)Nc2nonc2-c2nc3ccccc3[nH]2)cc1`, for which the AC50 under setting [1] was 29.1 µM [rising, single point].
